Here are results for one molecule from patent US8097654B2, “Radiolabeled 3-[3-(benzoyl-amido)benzyloxy]aspartic acid derivative and method of producing the same” (Suntory Holdings Limited, priority 2004, dated 2012).

Amino acid sequences for entries named in this document (tags omitted).
UniProt P43004, whole entry: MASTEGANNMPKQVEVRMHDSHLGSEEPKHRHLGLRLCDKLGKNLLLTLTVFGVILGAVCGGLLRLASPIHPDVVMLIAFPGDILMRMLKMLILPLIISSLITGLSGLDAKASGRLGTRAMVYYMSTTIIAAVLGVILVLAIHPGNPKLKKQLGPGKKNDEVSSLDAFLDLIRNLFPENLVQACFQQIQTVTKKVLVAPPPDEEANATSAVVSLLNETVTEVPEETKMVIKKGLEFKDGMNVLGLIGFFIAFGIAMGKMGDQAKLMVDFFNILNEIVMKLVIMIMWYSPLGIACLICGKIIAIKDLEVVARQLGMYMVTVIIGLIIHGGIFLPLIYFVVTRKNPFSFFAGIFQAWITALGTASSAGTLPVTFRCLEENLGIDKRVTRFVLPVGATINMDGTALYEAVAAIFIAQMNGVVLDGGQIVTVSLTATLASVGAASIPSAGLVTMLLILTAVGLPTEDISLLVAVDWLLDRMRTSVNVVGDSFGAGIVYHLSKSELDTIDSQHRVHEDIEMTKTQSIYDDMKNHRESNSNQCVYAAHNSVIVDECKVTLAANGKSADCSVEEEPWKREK

The structures appear in SMILES notation.

The assay deals with EAAT2 (Homo sapiens, UniProt P43004). The assay is described as follows: Inhibition of [14C]-glutamic acid uptake by EAAT2 expressed in MDCK or COS-1 cells. In kind it is cell-based. Set-up: expressed in transfected cells. The method, then:
In accordance with a known method (Shimamoto, K. et al., Mol. Pharmacol. 53, 195-201, 1998; Bioorg. Med. Chem. Lett. 10, 2407-2410, 2000), the inhibitory activity was assayed as the ability to inhibit the uptake of [^14C]-glutamic acid by human EAAT2 and EAAT3 stably expressed in MDCK (Madin-Darby canine kidney) cells or transiently expressed in COS-1 cells. The glutamate uptake activity was assayed by incubating a mixture of 1 μM of L-[^14C]-glutamic acid with a sample compound at a predetermined concentration for 12 minutes, lysing the cells and then measuring the radioactivity incorporated into the cells with a liquid scintillator. The amount of uptake was expressed in percentage by referring the amount of uptake in the absence of a test compound (i.e., the buffer alone) as 100% and referring the amount of uptake in a sodium-free solution as 0%.

The IC50 is the point on the concentration scale where inhibition reaches its midpoint. A higher IC50 goes with a need for much substance. `CCc1ccc(C(=O)Nc2cccc(CO[C@H](C(=O)O)[C@H](N)C(=O)O)c2)cc1` [Et-BzA-TBOA, (2S,3S)-3-[3-(4-ethylbenzoylamino)benzyloxy]aspartate]: the concentration for half-maximal inhibition (IC50) (1 μM L-[14C]-glutamic acid, 12 minutes) worked out at 3.2 ± 0.3 nM. Also, the “Inhibition of EAAT2, potency compared with I-BzA-TBOA” value (in words) is “almost the same potency as I-BzA-TBOA”.
